Primary screen of a compound library

Chains of the proteins cited; added tags and fusions are not shown. Residues count along the entry.
UniProt P9WPC5, whole entry: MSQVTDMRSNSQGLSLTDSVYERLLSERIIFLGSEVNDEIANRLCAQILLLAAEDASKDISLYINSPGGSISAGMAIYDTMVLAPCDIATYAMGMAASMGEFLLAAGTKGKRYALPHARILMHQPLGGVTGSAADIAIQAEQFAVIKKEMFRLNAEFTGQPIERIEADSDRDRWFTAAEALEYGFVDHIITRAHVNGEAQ
UniProt P9WPC3, whole entry partner: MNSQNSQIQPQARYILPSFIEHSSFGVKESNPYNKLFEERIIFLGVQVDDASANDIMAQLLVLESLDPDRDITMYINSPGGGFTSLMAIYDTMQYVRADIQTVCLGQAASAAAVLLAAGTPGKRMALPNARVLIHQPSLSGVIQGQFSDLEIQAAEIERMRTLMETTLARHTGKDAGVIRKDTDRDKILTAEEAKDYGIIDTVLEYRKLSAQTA
UniProt Q4DA54, 1-478: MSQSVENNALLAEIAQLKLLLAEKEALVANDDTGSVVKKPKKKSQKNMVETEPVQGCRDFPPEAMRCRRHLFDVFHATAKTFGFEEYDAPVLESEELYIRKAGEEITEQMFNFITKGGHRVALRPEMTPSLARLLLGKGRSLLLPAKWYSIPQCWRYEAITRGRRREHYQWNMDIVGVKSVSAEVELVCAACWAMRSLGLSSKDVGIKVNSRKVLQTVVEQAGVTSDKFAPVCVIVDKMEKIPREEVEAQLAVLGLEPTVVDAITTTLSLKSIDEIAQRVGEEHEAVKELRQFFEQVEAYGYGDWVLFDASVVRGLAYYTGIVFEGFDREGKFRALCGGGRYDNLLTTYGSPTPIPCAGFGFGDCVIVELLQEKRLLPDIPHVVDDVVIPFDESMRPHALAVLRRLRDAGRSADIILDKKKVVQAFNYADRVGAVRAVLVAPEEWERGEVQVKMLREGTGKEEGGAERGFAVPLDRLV
UniProt P9WNZ1, whole entry: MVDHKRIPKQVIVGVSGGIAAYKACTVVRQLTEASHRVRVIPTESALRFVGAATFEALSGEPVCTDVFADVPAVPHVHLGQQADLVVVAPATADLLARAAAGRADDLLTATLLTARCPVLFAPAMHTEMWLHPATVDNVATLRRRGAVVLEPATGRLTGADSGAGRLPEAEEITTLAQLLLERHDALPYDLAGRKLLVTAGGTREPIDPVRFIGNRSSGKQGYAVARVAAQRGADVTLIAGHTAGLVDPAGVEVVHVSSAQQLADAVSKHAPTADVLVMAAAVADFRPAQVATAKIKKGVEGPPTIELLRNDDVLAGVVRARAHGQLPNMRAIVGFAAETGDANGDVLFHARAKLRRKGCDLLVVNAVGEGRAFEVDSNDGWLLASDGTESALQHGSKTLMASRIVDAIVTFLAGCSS

The filed quantity is “Percent Effect” (%).
The record does not define 0% and 100%; most values in the screen are far below 50% and negative numbers occur (in some assays of this library far below -100).
Compounds were drawn at random from those tested, without regard to their results.

ClpP1P2: 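ClpP1P2, Mycobacterium tuberculosis (UniProt P9WPC5 and UniProt P9WPC3). Protease assay of ClpP1P2, read by the AMC dye that it sets free. Tested at 50 µM. Direction is inferred from only a few compounds that gave an IC50; most scored high, so higher reads as stronger inhibition. Most other retested compounds had strongly negative values. Of about 69,000 compounds tested this way, about 10 (0.015%) reached 50% or more in at least one test.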
Toxoplasma: 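Assay of Toxoplasma gondii numbers, read through their beta-galactosidase reporter with a colour substrate. Compounds at 10 µM. The record gives no direction; the compounds picked for IC50 retests had high values, so higher reads as fewer parasites. Size under these conditions: about 67,000 compounds, about 260 of them at 50% or above in at least one test.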
Leishmania in macrophages: 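Cell assay of Leishmania donovani living inside macrophages; the read-out is not stated. Tested at 30 µM. Higher reads as stronger inhibition (inferred: compounds with an IC50 in retests scored well above the rest). Of about 69,000 compounds tested this way, about 1,000 (1.5%) reached 50% or more in at least one test.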
TcHisRS: 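Enzyme assay of histidyl-tRNA synthetase; the read-out is not stated. Target: Histidine-tRNA ligase, Trypanosoma cruzi CL Brener (UniProt Q4DA54). Tested at 30 µM. The record gives no direction; compounds that gave an IC50 in retests scored well above the rest, so higher reads as stronger inhibition. Size under these conditions: about 69,000 compounds, about 31 of them at 50% or above in at least one test.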
CoaBC: 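Enzyme assay of CoaBC with a phosphate dye (Biomol Green) read at 650 nm. Target: Coenzyme A biosynthesis protein CoaBC, Mycobacterium tuberculosis (UniProt P9WNZ1). Concentration: 30 µM. Higher reads as stronger inhibition, judged from the few compounds that gave an IC50. Most strong results did not repeat in a second test. Size under these conditions: about 67,000 compounds, about 40 of them at 50% or above in at least one test.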

Result for CC(C)(C)CC(=O)Nc1ccccc1SCC(N)=O was ClpP1P2: 5.36%; Toxoplasma: 3.182%; Leishmania in macrophages: 25.05%; TcHisRS: -2.01%; CoaBC: 7.916%. COc1ccc(CNC(=O)c2nc3c(s2)CCN(C(C)=O)CC3)cc1 gave ClpP1P2: -12.07%; Toxoplasma: -9.208%; Leishmania in macrophages: 7.887%; TcHisRS: 5.882%; CoaBC: 3.75%. Result for Cc1noc(C2CCN(C(=O)c3cc(Cl)c(Cl)n3C)CC2)n1 was ClpP1P2: 6.959%; Toxoplasma: -8.546%; Leishmania in macrophages: 7.752%; TcHisRS: 10.23%; CoaBC: -8.351%. CCO[C@@H]1CCN(C(=O)c2ccnnc2)[C@@H]1Cc1cnn(C)c1 gave ClpP1P2: 0.3508%; Toxoplasma: -4.402%; Leishmania in macrophages: 39.15%; TcHisRS: 3.061%; CoaBC: 3.832%.

COc1ccc(CCC(=O)N2CCN(c3nc(C)ns3)CC2)cc1 read ClpP1P2: -1.096%; Toxoplasma: 0.6885%; Leishmania in macrophages: 0.2739%; TcHisRS: 7.182%; CoaBC: -23.82%. For CC(C)NC(=O)N1CCC[C@H]1C(=O)NCCCc1cnn(C)c1 the result was ClpP1P2: 3.138%; Toxoplasma: 3.121%; Leishmania in macrophages: 9.058%; TcHisRS: 6.077%; CoaBC: -3.125%. CN(CCC#N)C(=O)Cn1nnnc1C(C)(C)C gave ClpP1P2: -0.6465%; Toxoplasma: 1.232%; Leishmania in macrophages: 21.54%; TcHisRS: -0.5848%; CoaBC: 3.283%. COC(=O)c1ccc(CN[C@@H]2COC[C@H]2Cc2cc(C)no2)cc1 gave ClpP1P2: 6.259%; TcHisRS: 5.243%; CoaBC: -0.8674%.

O=C([C@H]1COC[C@H]2CN(C3CCCC3)C[C@H]21)N1CCCCO1 read ClpP1P2: -1.714%; TcHisRS: 0.5405%; CoaBC: 3.426%. COc1ccc(CN2CCOC[C@H](OCc3ccccc3)C2)cc1 gave ClpP1P2: -9.363%; Toxoplasma: 2.752%; Leishmania in macrophages: 2.016%; TcHisRS: -23.38%; CoaBC: 3.34%. With O=C(NCc1ccccc1CN1CCCC1=O)Nc1nccs1 the screen gave ClpP1P2: 7.232%; Toxoplasma: 3.262%; Leishmania in macrophages: 8.21%; TcHisRS: 5.172%; CoaBC: 10.41%. Result for CCOCC1c2c(cnn2CC2CC2)CCN1C(=O)c1ccncn1 (centres unmarked) was ClpP1P2: 9.024%; TcHisRS: 0%.

O=C(O)C(F)(F)F.[H][C@]12CC[C@@]3(N=C(C)N(CC4CC4)C3=O)[C@@]1([H])CN(Cc1ccccc1)C2 gave Toxoplasma: -19.43%; Leishmania in macrophages: 6.164%. With O=C1Nc2ccccc2CC12CCCN2Cc1ccc(C(F)(F)F)cc1 (centres unmarked) the screen gave ClpP1P2: 0.3516%; Toxoplasma: 12.54%; Leishmania in macrophages: -0.01946%; TcHisRS: 4.142%; CoaBC: 1.579%. For COc1ccc(CN2CCO[C@H]3[C@H](Oc4ccccn4)CC[C@@H]32)cc1 the result was ClpP1P2: -14.15%; TcHisRS: 7.843%; CoaBC: 6.515%. CNS(=O)(=O)c1ccc(C(=O)NCCc2ccccn2)cc1 read ClpP1P2: 11.18%; Toxoplasma: -3.453%; Leishmania in macrophages: 12.37%; TcHisRS: -1.515%; CoaBC: 9.182%.

For O=C(CCc1ccccc1)NCC1CCN(Cc2ccccc2)CC1 the result was ClpP1P2: -1.039%; Toxoplasma: 9.714%; Leishmania in macrophages: 41.69%; TcHisRS: 8.543%; CoaBC: 2.286%. With Cc1nn(C)c2cn(C(C)C(=O)NCc3ccncc3)nc12 (centres unmarked) the screen gave ClpP1P2: -3.94%; Toxoplasma: 3.434%; Leishmania in macrophages: 59.59%; TcHisRS: 3.478%; CoaBC: -5.774%. Cn1nc(C(=O)NC2CC2)cc1NC(=O)C1CC1 gave ClpP1P2: -1.278%; Toxoplasma: -1.586%; Leishmania in macrophages: 16.17%; TcHisRS: 5.82%; CoaBC: -2.444%. For CNC(=O)Cn1ccc2ccc(NC(=O)C(C)CSC)cc21 (centres unmarked) the result was ClpP1P2: -24.28%; Toxoplasma: -4.17%; Leishmania in macrophages: 12.01%; TcHisRS: 8.333%; CoaBC: 0%.

Result for CN(C)C(=O)CN1CCOCC2(CCN(CC3CCOC3)CC2)C1 (centres unmarked) was ClpP1P2: 4.043%; TcHisRS: 6.452%; CoaBC: -1.057%. For NC(=O)CN(C(=O)Cc1cccc(C(F)(F)F)c1)C1CCCC1 the result was ClpP1P2: 6.886%; Toxoplasma: -2.727%; Leishmania in macrophages: 6.467%; TcHisRS: 0%; CoaBC: 8.448%. With Cc1nc(C2CCCN2Cc2cc(=O)n(C)c(=O)n2C)no1 (centres unmarked) the screen gave ClpP1P2: -13.76%; Toxoplasma: -2.336%; Leishmania in macrophages: -16.62%; TcHisRS: 0.565%; CoaBC: -1.828%. For COCCc1nnc(NC(=O)CCCc2ccccc2)o1 the result was ClpP1P2: -6.914%; Toxoplasma: -17.94%; Leishmania in macrophages: 4.324%; TcHisRS: 7.273%; CoaBC: 1.788%.

[H][C@]12CCN(C(=O)c3cc(C)on3)CC[C@@]1([H])S(=O)(=O)N(CCOC)C2 gave Toxoplasma: -15.42%; Leishmania in macrophages: -11.97%.

Repeated from the top, 3 entries:

| compound | ClpP1P2 | Toxoplasma | Leishmania in macrophages | TcHisRS | CoaBC |
|---|---|---|---|---|---|
| `CC(C)(C)CC(=O)Nc1ccccc1SCC(N)=O` | 5.36% | 3.182% | 25.05% | -2.01% | 7.916% |
| `COc1ccc(CNC(=O)c2nc3c(s2)CCN(C(C)=O)CC3)cc1` | -12.07% | -9.208% | 7.887% | 5.882% | 3.75% |
| `Cc1noc(C2CCN(C(=O)c3cc(Cl)c(Cl)n3C)CC2)n1` | 6.959% | -8.546% | 7.752% | 10.23% | -8.351% |

Data taken from ChEMBL document CHEMBL3988442, “University of Dundee, Small-Polar-MMV Screening Library” (2021).